Reference: PubChem BioAssay AID504834 (National Center for Advancing Translational Sciences (NCATS), 2011)
In all, about 320,000 compounds went through this assay and about 22,000 (6.9%) were called active. The inconclusive results got no clear call from the source; some entries with a clear call stand among them for comparison. Calls come from the whole dose curve; as a rule, active = well fitted inhibition curve with a large enough effect; inconclusive = small, poorly fitted or top-dose-only effect, or another doubt; inactive = no such curve, though single readings can be large or run the other way. Where the call is inconclusive, the potency comes from a doubtful curve fit.

experiment: Primary qHTS for delayed death inhibitors of the malarial parasite plastid, 96 hour incubation; conditions: P. falciparum luciferase reporter growth; series mostly up to 28.7 µM; activity change, negative = inhibition: at the top concentration
Summary of the method: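 Erythrocytes infected with luciferase-expressing P. falciparum were dispensed at 2% hematocrit and 0.05% parasitemia (final), then incubated with compounds 96 hours at 37 C in 5% CO2. Luminescence after detection reagent addition reported growth.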
% is set by controls: 0 for no effect and ±100 for the full control effect; potency is the fitted concentration of half-maximal effect.

Compound	Potency	activity change, negative = inhibition
COc1ccc(OC)c(Nc2nc(N(C)c3ccccc3)nc(N)c2[N+](=O)[O-])c1	inconclusive: 10.4 µM [inhibitor, single point]	–
O=C(CCNC(=O)C1CCN(S(=O)(=O)c2ccc(F)cc2)CC1)NCCc1cccc(F)c1	inconclusive: 18.5 µM [inhibitor, single point]	–
CCOC(=O)C1=C(CN2CCN(c3ccc(F)cc3)CC2)NC(=O)NC1c1cccs1 (centres undefined)	inconclusive: 18.5 µM [inhibitor, single point]	–
CCOc1ccc(/C=C2/SC(=O)NC2=S)cc1	inconclusive: 4.65 µM [inhibitor, partial curve]	–
O=[N+]([O-])c1ccc(SCc2ccncc2)nc1	–	inactive: 7.29%
O=C(COC(=O)C1CCN(c2ccc(C(F)(F)F)cn2)CC1)Nc1ccc(F)cc1[N+](=O)[O-]	–	inactive: 34%
COc1cc2c(cc1OC)-c1cc3ccc4c(c3c[n+]1CC2)OCO4	active: 0.147 µM	–
CC(=O)NC(Cc1ccccc1C)C(=O)NC1CCN(c2ncccc2[N+](=O)[O-])CC1 (centres undefined)	inconclusive: 18.5 µM [inhibitor, single point]	–
CC/C(C)=N/Nc1nc(-c2cc3cccc(OC)c3oc2=O)cs1	–	inactive: 33.8%
COc1ccccc1CN1C[C@@H]2C[C@@H](c3ccc(C)cc3)N3CCC[C@@]23C1=O	inconclusive: 18.5 µM [inhibitor, single point]	–
COc1cc(C(=O)Nc2ccc(N3CCN(C(=O)c4ccc(C)cc4)CC3)cc2)cc(OC)c1OC	–	inactive: -18%
Cc1csc(NC(=O)c2cc(=O)[nH]c3ccc(S(=O)(=O)N4CCOCC4)cc23)n1	–	inactive: 31.3%
COc1cc(C=O)ccc1OCCSc1ccc(Cl)cc1	–	inactive: 32.8%
Cc1ccc(C(=O)NCC(c2ccco2)N2CCCCC2)s1 (centres undefined)	inconclusive: 7.38 µM [inhibitor, partial curve, poor fit]	–
CCC(=O)N1CCc2cc(S(=O)(=O)N3CCN(c4cc(C)ccc4C)CC3)ccc21	active: 10.4 µM	–
Cc1cccn2c(=O)c(C=O)c(N3CC(C)OC(C)C3)nc12 (centres undefined)	inconclusive: 16.5 µM [inhibitor, single point]	–
CN(/N=C/c1cccnc1)C1=NS(=O)(=O)c2ccccc21	inconclusive: 13.1 µM [inhibitor, partial curve, poor fit]	–
O=C(CN1CCN(Cc2ccc(Cl)cc2)CC1)N/N=C/C=C/c1ccccc1[N+](=O)[O-]	inconclusive: 11.7 µM [inhibitor, single point]	–
Cn1nc(CC(=O)NCc2ccc(F)cc2)c2ccccc2c1=O	inconclusive: 10.4 µM [inhibitor, partial curve, poor fit]	–
CCc1ccc(/C=C2\SC(N3CCOCC3)=NC2=O)cc1	inconclusive: 18.5 µM [inhibitor, single point]	–
Cc1ccccc1S(=O)Cc1ccc(C(=O)NCCN2CCOCC2)o1 (centres undefined)	inconclusive: 9.28 µM [inhibitor, partial curve, poor fit]	–
Cc1ccc(C)c(NC(=O)CN(C)C(=O)c2ccc(-c3ccc(Cl)cc3)o2)c1	active: 13.1 µM	–
Cc1ccc(NC(=O)c2nc[nH]c2C(=O)NCCCCCNC(=O)OC(C)(C)C)cc1	inconclusive: 9.28 µM [inhibitor, single point]	–

Compound	Potency	activity change, negative = inhibition
Cc1ccc(Cl)cc1N1CCN(c2cccc[n+]2C)CC1	active: 0.738 µM	–
O=C(COc1ccc(F)cc1Br)N1CCN(c2ncccn2)CC1	inconclusive: 2.62 µM [inhibitor, partial curve, poor fit]	–
O=C(Nc1ccc2nc3n(c(=O)c2c1)CCCCC3)c1cc([N+](=O)[O-])ccc1F	inconclusive: 18.5 µM [inhibitor, single point]	–
COc1cc(C)c(Cl)c(C)c1S(=O)(=O)NCc1cccnc1	inconclusive: 18.5 µM [inhibitor, single point]	–
Cn1c(=O)n(CCC(=O)O)c2ccccc21	inconclusive: 18.5 µM [inhibitor, single point]	–
CCN(CC)Cc1c(C(=O)N/N=C/c2ccc(OCc3ccccc3C)cc2)nnn1-c1nonc1N	inconclusive: 10.4 µM [inhibitor, single point]	–
CCc1nnc(NC(=O)CSc2nc3[nH]c(=O)cc(O)c3s2)s1	inconclusive: 4.65 µM [inhibitor, partial curve, poor fit]	–
CCOP(=O)(OCC)c1nc(-c2ccccc2)oc1NCc1ccccc1	active: 2.62 µM	–
O=C(NC1CCCC1)C(c1cccnc1)N(Cc1ccccc1)C(=O)c1csnn1 (centres undefined)	–	inactive: -18.7%
O=C(CSc1nc2ccccc2c(=O)[nH]1)Nc1ccccc1C(F)(F)F	inconclusive: 18.5 µM [inhibitor, single point]	–
CN1C(=O)C(=Cc2ccc(N3CCOCC3)o2)C(=O)N(C)C1=S	inconclusive: 11.7 µM [inhibitor, single point]	–
CCOc1ccccc1Cn1c(=O)sc2ccccc21	inconclusive: 4.65 µM [inhibitor, partial curve, poor fit]	–
CCc1ccc2oc(=O)cc(CN3CCN(Cc4ccccc4)CC3)c2c1	inconclusive: 18.5 µM [inhibitor, single point]	–
O=C(OCC(=O)c1ccc[nH]1)c1ccc2ccccc2n1	–	inactive: 34.7%
CSc1ncccc1C(=O)N1CCCC(CCC(=O)NCc2ccccc2F)C1 (centres undefined)	inconclusive: 10.4 µM [inhibitor, single point]	–
COc1ccc(C(=O)CN2Cc3ccccc3C2=N)cc1	–	inactive: 280%
O=C1NC(=O)/C(=C\c2ccccc2Oc2ccc(F)c(F)c2)S1	inconclusive: 0.0738 µM [inhibitor, full curve, poor fit]	–
CCNC(=S)N/N=C(\C)c1ccco1	inconclusive: 18.5 µM [inhibitor, single point]	–
CCCCc1c(C)nc2ccccc2c1SCCC#N	inconclusive: 14.7 µM [inhibitor, partial curve, poor fit]	–
CC(C)[C@H](NC(=O)OCc1ccccc1)C(=O)OCC(=O)NC1(C#N)CCCC1	–	inactive: -23%
CCOC(=O)C1=C(C)NC(SC)=C(C#N)C1CC(C)C (centres undefined)	inconclusive: 1.17 µM [inhibitor, full curve, poor fit]	–
CC1CN(C2CCN(C(=O)COc3ccc(Cl)cc3)CC2)CC(C)O1 (centres undefined)	inconclusive: 18.5 µM [inhibitor, single point]	–
O=C(Nc1ncc([N+](=O)[O-])s1)c1ccccc1Br	inconclusive: 16.5 µM [inhibitor, single point]	–

Reprinted from the listing, 18 compounds:
Compound	Potency	activity change, negative = inhibition
COc1cc(C)c(Cl)c(C)c1S(=O)(=O)NCc1cccnc1	inconclusive: 18.5 µM [inhibitor, single point]	–
Cn1c(=O)n(CCC(=O)O)c2ccccc21	inconclusive: 18.5 µM [inhibitor, single point]	–
CCN(CC)Cc1c(C(=O)N/N=C/c2ccc(OCc3ccccc3C)cc2)nnn1-c1nonc1N	inconclusive: 10.4 µM [inhibitor, single point]	–
CCc1nnc(NC(=O)CSc2nc3[nH]c(=O)cc(O)c3s2)s1	inconclusive: 4.65 µM [inhibitor, partial curve, poor fit]	–
CCOP(=O)(OCC)c1nc(-c2ccccc2)oc1NCc1ccccc1	active: 2.62 µM	–
O=C(NC1CCCC1)C(c1cccnc1)N(Cc1ccccc1)C(=O)c1csnn1 (centres undefined)	–	inactive: -18.7%
O=C(CSc1nc2ccccc2c(=O)[nH]1)Nc1ccccc1C(F)(F)F	inconclusive: 18.5 µM [inhibitor, single point]	–
CN1C(=O)C(=Cc2ccc(N3CCOCC3)o2)C(=O)N(C)C1=S	inconclusive: 11.7 µM [inhibitor, single point]	–
CCOc1ccccc1Cn1c(=O)sc2ccccc21	inconclusive: 4.65 µM [inhibitor, partial curve, poor fit]	–
CCc1ccc2oc(=O)cc(CN3CCN(Cc4ccccc4)CC3)c2c1	inconclusive: 18.5 µM [inhibitor, single point]	–
O=C(OCC(=O)c1ccc[nH]1)c1ccc2ccccc2n1	–	inactive: 34.7%
CSc1ncccc1C(=O)N1CCCC(CCC(=O)NCc2ccccc2F)C1 (centres undefined)	inconclusive: 10.4 µM [inhibitor, single point]	–
COc1ccc(C(=O)CN2Cc3ccccc3C2=N)cc1	–	inactive: 280%
O=C1NC(=O)/C(=C\c2ccccc2Oc2ccc(F)c(F)c2)S1	inconclusive: 0.0738 µM [inhibitor, full curve, poor fit]	–
CCNC(=S)N/N=C(\C)c1ccco1	inconclusive: 18.5 µM [inhibitor, single point]	–
CCCCc1c(C)nc2ccccc2c1SCCC#N	inconclusive: 14.7 µM [inhibitor, partial curve, poor fit]	–
CC(C)[C@H](NC(=O)OCc1ccccc1)C(=O)OCC(=O)NC1(C#N)CCCC1	–	inactive: -23%
CCOC(=O)C1=C(C)NC(SC)=C(C#N)C1CC(C)C (centres undefined)	inconclusive: 1.17 µM [inhibitor, full curve, poor fit]	–

The list continues:

Compound	Potency	activity change, negative = inhibition
COc1ccc(N(CC(=O)NC2CCCC2)C(=O)CCC(=O)Nc2nc(C)cs2)cc1OC	inconclusive: 10.4 µM [inhibitor, partial curve]	–
COc1ccc2[nH]c(C)c(CCNC(=S)Nc3cc(C)ccc3C)c2c1	–	inactive: -34.3%
O=C1CC(N(Cc2ccco2)C(=O)Nc2ccc(F)cc2)C(=O)N1c1ccc(F)cc1 (centres undefined)	inconclusive: 0.415 µM [inhibitor, partial curve, poor fit]	–
C=CCOc1cccc(/C=N/NC(=O)CN(c2cc(Cl)ccc2OC)S(=O)(=O)c2ccc(C)c([N+](=O)[O-])c2)c1	active: 1.17 µM	–
CS(=O)(=O)c1ccc(N)c(SSc2cc(S(C)(=O)=O)ccc2N)c1	inconclusive: 18.5 µM [inhibitor, single point]	–
COc1ccc(-c2cc(C(=O)n3cnc4ccccc43)c3ccccc3n2)cc1	–	inactive: -15.8%
CCc1cc(C(=O)NCC(c2ccco2)N2CCCCC2)sc1C (centres undefined)	active: 5.86 µM	–
O=C(CN1CCCC1)Nc1ccccc1Sc1ccc(Cl)cc1	inconclusive: 18.5 µM [inhibitor, single point]	–
COC(=O)c1c(NC(=O)c2nc3nc(C)cc(C(F)F)n3n2)sc2c1CCC2	active: 5.22 µM	–
COc1ccc(OC)c(C(=O)COC(=O)c2ccccc2O)c1	–	inactive: 0.237%
O=c1oc2ccccc2c(N2CCCCC2)c1CN1CCCC1	inconclusive: 1.04 µM [inhibitor, full curve]	–
CC(=O)Nc1cccc(/C(C)=N/N2C(C)CCCC2C)c1 (centres undefined)	–	inactive: -2.05%
Cc1cnc(NC(=O)NCC2CCCC(CNC(=O)Nc3ncc(C)s3)C2)s1 (centres undefined)	inconclusive: 14.7 µM [inhibitor, single point]	–
CCOC(=O)C1CCCN(C(=O)c2ccc(C)c(S(=O)(=O)N3CCCCC3)c2)C1 (centres undefined)	inconclusive: 11.7 µM [inhibitor, single point]	–
Cc1csc(NC(=O)c2ccc3c(c2)OCO3)n1	–	inactive: 27.9%
O=C(CCNc1ccc(F)c(Cl)c1)c1ccco1	inconclusive: 18.5 µM [inhibitor, single point]	–
O=C(c1cccs1)N(CCN1CCCCC1)CC1CCCN(C2CCCC2)C1 (centres undefined)	inconclusive: 18.5 µM [inhibitor, single point]	–
Cc1cccc2nc(CSc3nc4[nH]ncc4c(=O)n3-c3ccccc3Cl)cc(=O)n12	active: 9.28 µM	–
O=S(=O)(c1ccc2c(c1)OCCO2)N1CCC(c2nc3ccc(Cl)cc3[nH]2)CC1	inconclusive: 2.94 µM [inhibitor, single point]	–
O=C1CCCC2=C1C(c1ccsc1)CC(=O)N2c1ccccc1 (centres undefined)	inconclusive: 14.7 µM [inhibitor, partial curve, poor fit]	–
COC(=O)[C@]1(C)N[C@H](c2ccc(SC3CCCCC3)cc2)[C@@H]2C(=O)N(C)C(=O)[C@@H]21	inconclusive: 18.5 µM [inhibitor, single point]	–
O=C(Oc1cccc2cccnc12)c1cccs1	inconclusive: 10.4 µM [inhibitor, single point]	–
C/C(=N\NC(=O)CSc1nc(C)cc(C)n1)c1cccc([N+](=O)[O-])c1	–	inactive: -4.01%
